In PubChem BioAssay AID540256 (National Center for Advancing Translational Sciences (NCATS), 2011):
Among all 300,000 compounds or so, about 3,700 (1.2%) were called active. This list was built around the results that the source calls inconclusive (neither active nor inactive); the mix of calls is not that of the screen. Calls come from the whole dose curve; tested in HEK293 cells. Potencies of inconclusive entries are doubtful fits and often do not repeat.

test: qHTS for Inhibitors of binding or entry into cells for Lassa Virus; conditions: Lassa virus pseudotype entry inhibition, cell reporter; activity change, negative = inhibition: at 37.9 µM (top of the series) unless noted; note: nearly all actives have a fitted effect of over 50% in size
% is set by controls: 0 for no effect and ±100 for the full control effect; potency is the fitted concentration of half-maximal effect.

**Q.** With `Cc1ccc(C2c3cccn3CCN2S(=O)(=O)c2ccc([N+](=O)[O-])cc2)cc1` (configuration not stated) as the compound, how does the Potency read?
**A.** The Potency was inconclusive: 5.62 µM [inhibitor, single point].

**Q.** For `O=C1c2ccccc2C(=O)N1CC#CCN1CCN(C(c2ccccc2)c2ccccc2)CC1`, which Potency is on record?
**A.** Its Potency is inconclusive: 8.91 µM [inhibitor, partial curve, poor fit].

**Q.** For `COc1ccc(CC(=O)NNC(=O)c2cccs2)cc1`, which Potency is on record?
**A.** Its Potency is inconclusive: 14.1 µM [activator, single point].

**Q.** For `Cc1cccc(/C=N/NC(=O)c2cc3c(s2)-c2ccccc2CC3)c1`, which Potency is on record?
**A.** Its Potency is inconclusive: 15.8 µM [inhibitor, single point].

**Q.** Which Potency does the source give for `COc1ccc(C(=O)NC(=S)Nc2ccc(N3CCCC3)cc2)cc1` here?
**A.** Its Potency is inconclusive: 1.46 µM [inhibitor, full curve].

**Q.** With `Cc1ccccc1OCc1nc2c3cnn(-c4ccccc4Br)c3ncn2n1` as the compound, how does the “activity change, negative = inhibition” value read?
**A.** Its value is inactive: 11.5% [at 46.1 µM].

**Q.** With `CCn1cc2nc(SCc3cc(C)ccc3C)n(Cc3ccc(C)cc3)c(=O)c2n1` as the compound, how does the Potency read?
**A.** The Potency was inconclusive: 25.1 µM [inhibitor, partial curve, poor fit].

**Q.** With `Cc1ccc(S(=O)(=O)n2ccc3c(OCCOCCNCc4ccc(F)cc4)cccc32)cc1` as the compound, how does the Potency read?
**A.** The Potency was inconclusive: 0.501 µM [inhibitor, partial curve, poor fit].

**Q.** For `Cc1oc(-c2ccccc2F)nc1Cn1c(SCc2ccccc2F)nc2ccncc21`, which “activity change, negative = inhibition” value is on record?
**A.** Its value is inactive: 6.72% [at 46.1 µM].

**Q.** For `Oc1ccc(C=Nc2ccc(N3CCOCC3)cc2)c(O)c1`, which Potency is on record?
**A.** Its Potency is inconclusive: 17.8 µM [inhibitor, single point].

**Q.** Which Potency does the source give for `O=C(Nc1nccs1)c1cn(-c2ccccc2)nc1-c1ccccc1` here?
**A.** Its Potency is inconclusive: 35.5 µM [inhibitor, single point].

**Q.** Which Potency does the source give for `Cc1cc(C(=O)Nc2ccc3[nH]ccc3c2)no1` here?
**A.** The Potency was inconclusive: 17.8 µM [inhibitor, single point].

**Q.** With `COc1ccc(S(=O)(=O)N(CC(=O)NC2CC2)c2ccc(C)cc2)cc1` as the compound, how does the “activity change, negative = inhibition” value read?
**A.** Its value is inactive: 0.88%.

**Q.** With `Cc1ccc(OCC(O)CN2CCN(Cc3ccc4c(c3)OCO4)CC2)cc1C` (configuration not stated) as the compound, how does the Potency read?
**A.** Its Potency is inconclusive: 32.6 µM [inhibitor, partial curve, poor fit].

**Q.** For `CCn1cc(CNC(=O)/C=C/c2cnn(C)c2)c(C)n1`, which Potency is on record?
**A.** Its Potency is inconclusive: 7.31 µM [inhibitor, partial curve, poor fit].

**Q.** For `Cc1nc2ccc(C(C(F)(F)F)(C(F)(F)F)C(F)(F)F)cc2[nH]1`, which Potency is on record?
**A.** The Potency was active: 15.8 µM.

**Q.** With `COc1ccc(C2=NOC(C(=O)NCc3cccs3)C2)cc1OC` (configuration not stated) as the compound, how does the Potency read?
**A.** The Potency was inconclusive: 0.259 µM [inhibitor, full curve].

**Q.** With `COc1ccc(-n2nnnc2SCC(=O)c2ccc3c(c2)OCCO3)cc1` as the compound, how does the “activity change, negative = inhibition” value read?
**A.** Its value is inactive: -8.01%.

**Q.** With `COc1cc(C(=O)NCCOc2ccc(Cl)cc2)ccc1OCc1c(C)noc1C` as the compound, how does the Potency read?
**A.** Its Potency is inconclusive: 7.08 µM [inhibitor, full curve, poor fit].

**Q.** With `Nc1c(C(=O)Nc2ccc(F)c(Cl)c2)sc2nc3c(cc12)N1CCC3CC1` as the compound, how does the Potency read?
**A.** Its Potency is inconclusive: 35.5 µM [inhibitor, single point].

**Q.** Which Potency does the source give for `Cc1ccc2nc(NC(=O)c3cc(-c4ccco4)nc4ccccc34)sc2c1` here?
**A.** The Potency was inconclusive: 25.1 µM [inhibitor, single point].

**Q.** Which Potency does the source give for `Cc1ccc(NC2=Nc3ccccc3CC2)cc1` here?
**A.** The Potency was inconclusive: 11.2 µM [inhibitor, single point].

**Q.** Which Potency does the source give for `CCCCNC(=O)N1CCN(C(c2ccccc2)c2ccccc2)CC1` here?
**A.** The Potency was inconclusive: 1.78 µM [inhibitor, full curve].

**Q.** For `O=C(Nc1ccc(OC(=O)c2cccnc2)cc1)c1cccnc1`, which Potency is on record?
**A.** Its Potency is inconclusive: 4.11 µM [inhibitor, single point].

**Q.** With `O=C(N/N=C/c1ccccn1)c1cc(C2CC2)nc2ccccc12` as the compound, how does the Potency read?
**A.** Its Potency is inconclusive: 28.2 µM [inhibitor, partial curve, poor fit].

**Q.** For `Cn1ncc2c(O/N=C(\N)c3ccc(C(C)(C)C)cc3)ncnc21`, which Potency is on record?
**A.** Its Potency is inconclusive: 15.8 µM [inhibitor, single point].

**Q.** For `COc1ccccc1CNC(=O)c1ccc(-c2ccccc2C(F)(F)F)o1`, which Potency is on record?
**A.** Its Potency is inconclusive: 29.1 µM [inhibitor, single point].

**Q.** With `COc1ccc(OCc2nnc(SCC(=O)N3C(C)CCCC3C)o2)cc1` (configuration not stated) as the compound, how does the Potency read?
**A.** Its Potency is inconclusive: 31.6 µM [inhibitor, single point].

**Q.** For `O=C(O)c1cc(N/N=C/c2ccc3c(c2)OCO3)ccc1Cl`, which Potency is on record?
**A.** Its Potency is inconclusive: 10 µM [inhibitor, partial curve, poor fit].

**Q.** Which Potency does the source give for `CCOc1ccc(NC(=O)CN(C)C(=O)c2ccc(C)c(S(=O)(=O)N3CCCCC3)c2)cc1OCC` here?
**A.** The Potency was inconclusive: 7.08 µM [activator, full curve].

**Q.** For `O=C(CN1C(=O)c2ccccc2C1=O)c1ccc(F)cc1`, which Potency is on record?
**A.** Its Potency is inconclusive: 35.5 µM [inhibitor, single point].

**Q.** With `Cc1ccc(S(=O)(=O)N(CC(=O)Nc2ccccc2-c2ccccc2)c2ccc(C)cc2C)cc1` as the compound, how does the Potency read?
**A.** The Potency was inconclusive: 2.06 µM [inhibitor, partial curve, poor fit].

**Q.** For `CC1CCN(S(=O)(=O)c2cn(CC(=O)Nc3cccc(C#N)c3)cn2)CC1`, which Potency is on record?
**A.** Its Potency is inconclusive: 7.94 µM [inhibitor, partial curve].

**Q.** With `CCc1cccc(C)c1Nc1nc2ccccc2n2cnnc12` as the compound, how does the Potency read?
**A.** Its Potency is inconclusive: 0.398 µM [activator, single point].

**Q.** With `CCOC(=O)c1c(C)[nH]c(C)c1C(=O)COC(=O)c1cccc(S(=O)(=O)NC)c1` as the compound, how does the “activity change, negative = inhibition” value read?
**A.** The value was inactive: 15.5%.

**Q.** With `CCOc1ccccc1C1NC(=O)NC(C)=C1C(=O)OC1CCCCC1` (configuration not stated) as the compound, how does the Potency read?
**A.** The Potency was inconclusive: 29.1 µM [inhibitor, single point].

**Q.** With `c1ccc(CN=C2NN=C(c3ccccc3)CS2)cc1` as the compound, how does the “activity change, negative = inhibition” value read?
**A.** Its value is inactive: -20.8%.

**Q.** With `CCc1ccc(-c2nc(CN3CCCC(C(=O)NCCc4ccc(OC)c(OC)c4)C3)c(C)o2)cc1` (configuration not stated) as the compound, how does the Potency read?
**A.** Its Potency is inconclusive: 25.9 µM [inhibitor, single point].

**Q.** With `CCN(CC)S(=O)(=O)c1ccc(N2CCOCC2)c(NS(=O)(=O)c2ccc(C)c(C)c2)c1` as the compound, how does the Potency read?
**A.** Its Potency is inconclusive: 6.31 µM [inhibitor, single point].

**Q.** For `COc1ccccc1C(O)(C(=O)NNc1cccc(C)c1)c1ccccc1OC`, which “activity change, negative = inhibition” value is on record?
**A.** Its value is inactive: -14.4%.

**Q.** For `COC(=O)c1ccccc1NC(=O)Oc1ccc(F)cc1`, which “activity change, negative = inhibition” value is on record?
**A.** The value was inactive: 1.74%.

**Q.** With `O=S1(=O)c2ccccc2N(Cc2ccccc2Cl)c2ccccc21` as the compound, how does the “activity change, negative = inhibition” value read?
**A.** Its value is inactive: 5.47% [at 46.1 µM].
